These are yes or no findings as the source states them, for the method shown. Some entries that bind do so weakly or less than the wild type. Where a sequence is shown, tags or fusion partners need not be part of it.
Assays:
[1] = molecular target: Neuropilin-1 (Nrp-1), human, on the surface of the anti-CD3-stimulated P62 CTL clone (human) (UniProt O14786); assay: flow cytometry: P62 T-cell clone incubated with Sema-3A-Fc (12 µg/mL), detected with mouse anti-human IgG Fc secondary mAb
[2] = molecular target: Neuropilin-1 (Nrp-1), human, on the surface of the anti-CD3-stimulated P62 CTL clone (human) (UniProt O14786); assay: immunofluorescence (flow cytometry) on the P62 CTL clone

Protein sequences, listed by entry. Tags and fused reporters are not part of them. Lines headed by an entry give the natural chain unless they say otherwise; changes in a name come on top.
UniProt O14786: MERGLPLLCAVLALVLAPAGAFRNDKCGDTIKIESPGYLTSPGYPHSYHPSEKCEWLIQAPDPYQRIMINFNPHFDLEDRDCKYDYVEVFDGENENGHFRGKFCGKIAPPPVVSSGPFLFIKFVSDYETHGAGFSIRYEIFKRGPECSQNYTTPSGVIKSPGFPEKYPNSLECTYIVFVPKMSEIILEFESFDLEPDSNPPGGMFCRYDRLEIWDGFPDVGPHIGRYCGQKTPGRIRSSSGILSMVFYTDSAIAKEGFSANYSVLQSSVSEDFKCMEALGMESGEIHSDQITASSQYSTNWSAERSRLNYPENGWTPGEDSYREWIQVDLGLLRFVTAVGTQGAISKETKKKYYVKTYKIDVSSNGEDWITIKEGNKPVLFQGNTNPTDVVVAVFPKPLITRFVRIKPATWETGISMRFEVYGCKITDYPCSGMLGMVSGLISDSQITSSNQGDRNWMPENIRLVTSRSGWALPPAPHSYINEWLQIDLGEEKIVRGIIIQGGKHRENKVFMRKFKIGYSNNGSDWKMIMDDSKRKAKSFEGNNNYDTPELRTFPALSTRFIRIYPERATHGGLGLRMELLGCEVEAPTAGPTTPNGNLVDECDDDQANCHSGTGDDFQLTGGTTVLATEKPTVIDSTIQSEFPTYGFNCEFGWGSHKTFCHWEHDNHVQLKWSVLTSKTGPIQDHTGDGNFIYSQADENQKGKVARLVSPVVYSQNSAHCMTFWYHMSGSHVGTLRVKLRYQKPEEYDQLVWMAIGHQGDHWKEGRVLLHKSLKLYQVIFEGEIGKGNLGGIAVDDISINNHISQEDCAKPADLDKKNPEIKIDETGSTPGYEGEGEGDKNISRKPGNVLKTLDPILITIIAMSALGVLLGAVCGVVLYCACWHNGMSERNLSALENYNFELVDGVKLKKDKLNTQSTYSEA

- binding [1]: binds
- binding [2]: binds
B1: rSema-3A-Fc (Fc fusion, not shown: a dimerising Fc or GST)
chain: KNNVPRLKLSYKEMLESNNVITFNGLANSSSYHTFLLDEERSRLYVGAKDHIFSFDLVNIKDFQKIVWPVSYTRRDECKWAGKDILKECANFIKVLKAYNQTHLYACGTGAFHPICTYIEIGHHPEDNIFKLENSHFENGRGKSPYDPKLLTASLLIDGELYSGTAADFMGRDFAIFRTLGHHHPIRTEQHDSRWLNDPKFISAHLISESDNPEDDKVYFFFRENAIDGEHSGKATHARIGQICKNDFGGHRSLVNKWTTFLKARLICSVPGPNGIDTHFDELQDVFLMNFKDPKNPVVYGVFTTSSNIFKGSAVCMYSMSDVRRVFLGPYAHRDGPNYQWVPYQGRVPYPRPGTCPSKTFGGFDSTKDLPDDVITFARSHPAMYNPVFPMNNRPIVIKTDVNYQFTQIVVDRVDAEDGQYDVMFIGTDVGTVLKVVSIPKETWYDLEEVLLEEMTVFREPTAISAMELSTKQQQLYIGSTAGVAQLPLHRCDIYGKACAECCLARDPYCAWDGSACSRYFPTAKRRTRRQDIRNGDPLTHCSDLHHDNHHGHSPEERIIYGVENSSTFLECSPKSQRALVYWQFQRRNEERKEEIRVDDHIIRTDQGLLLRSLQQKDSGNYLCHAVEHGFIQTLLKVTLEVIDTEHLEELLHKDDDGDGSKTKEMSNSMTPSQKVWYRDFMQLINHPNLNTMDEFCEQVWKRDRKQRRQRPGHTPGNSNKWKHLQENKKGRNRRTHEFERAPRSV

From US20220023342A1
